# “And” between values parts separate entries of the source, which are not always exact repeats. Equal entries are not always repeated. Structures can show the parent of a compound that is named as a salt. ± gives the standard deviation of the averaged measurements. The list shows a part of the results. Plates or batches differ in their baseline, so values are only roughly comparable.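 Primary human stellate myofibroblasts activated in culture; inactivation shown by regained lipid droplets. Readout: fraction of Hoechst-counted cells exceeding a per-plate Bodipy threshold, duplicate wells, each plate with DMSO negative and nortriptyline positive controls. Hits: control-normalized score beyond the plate's top-tenth-percentile nortriptyline wells, or among its three best wells. Final well concentrations unstated.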
# Test system: primary human hepatic stellate cells (donor 1)
# Experiment: percent Bodipy-positive cells; higher = more lipid droplet accumulation
# Settings: 48 h
# [1] = library stock concentration: 3.33 mM
# [2] = library stock concentration: 5.9 mM
# [3] = library stock concentration: 1 mM
# [4] = library stock concentration: 10 mM
# [5] = library stock concentration: 7.1 mM
# [6] = library stock concentration: 6.4 mM
compound,measurement,setting,value
CN1C(C(=O)Nc2ccccn2)=C(O)c2sccc2S1(=O)=O [Tenoxicam],percent Bodipy-positive cells,,31.8 ± 8.9%
same,percent Bodipy-positive cells,[1],14.1 ± 9.2%
same,percent Bodipy-positive cells,[2],6.41% and 15.1%
"O=P(O)(O)O[C@H]1[C@@H](O)[C@H](O)[C@@H](OP(=O)(O)O)[C@H](OP(=O)(O)O)[C@H]1O [D-myo-Inositol-2,4,5-triphosphate (sodium salt)]",percent Bodipy-positive cells,[3],13.7 ± 4.2%
O=C(CCCC[C@@H]1SC[C@@H]2NC(=O)N[C@@H]21)NCCCC[C@H](NC(=O)CCN1C(=O)C=CC1=O)C(=O)O [3-(N-Maleimidopropionyl)-biocytin],percent Bodipy-positive cells,[3],10.7 ± 2.1%
Cc1ncc([N+](=O)[O-])n1CC(O)CCl (configuration not stated) [Ornidazole],percent Bodipy-positive cells,,25.1 ± 0.42%
same,percent Bodipy-positive cells,[1],10.7 ± 0.65%
same,percent Bodipy-positive cells,library stock concentration: 9.1 mM,13.5 ± 3.9%
same,percent Bodipy-positive cells,[4],21.9 ± 4.3%
Cc1ncc([N+](=O)[O-])n1CC(O)CCl (configuration not stated),percent Bodipy-positive cells,[4],8.02 ± 2%
CC(=O)Oc1ccc2c(c1)CC[C@@H]1[C@@H]2CC[C@]2(C)[C@@H](OC(C)=O)CC[C@@H]12 [Estradiol diacetate],percent Bodipy-positive cells,[4],27 ± 12%
NC(=O)N1c2ccccc2CC(O)c2ccccc21 (configuration not stated) [Licarbazepine],percent Bodipy-positive cells,[4],6.37 ± 1.2%
Cc1cccc(C)c1NC(=O)C1CCCCN1C (configuration not stated) [Mepivacaine HCl],percent Bodipy-positive cells,[1],12.4 ± 0.39%
same,percent Bodipy-positive cells,[4],23.7 ± 0.72%
Cc1cccc(C)c1NC(=O)C1CCCCN1C (configuration not stated),percent Bodipy-positive cells,[4],10.1 ± 4.5%
Cc1cccc(C)c1NC(=O)C1CCCCN1C (configuration not stated) [Mepivacaine hydrochloride],percent Bodipy-positive cells,[5],30.1 ± 3.6%
same,percent Bodipy-positive cells,[4],49.5 ± 7%
CCc1nc(-c2cccc(C)c2)c(-c2ccnc(NC(=O)c3ccccc3)c2)s1,percent Bodipy-positive cells,library stock concentration: 80 uM,20.7 ± 2.5%
same,percent Bodipy-positive cells,library stock concentration: 400 uM,10.1% and 16.8%
same,percent Bodipy-positive cells,library stock concentration: 2 mM,9.25% and 27.5%
same,percent Bodipy-positive cells,[1],9.91 ± 5%
COc1ccc(C2C(=O)c3ccccc3C2=O)cc1 [Anisindione],percent Bodipy-positive cells,library stock concentration: 7.9 mM,18.8 ± 3%
same,percent Bodipy-positive cells,[4],29.2 ± 4%
CN(C)c1ccc2nc3ccc(=[N+](C)C)cc-3sc2c1 [Methylene blue],percent Bodipy-positive cells,[2],63.6 ± 12%
COc1cc(/C=C/C(=O)N2CCC=CC2=O)cc(OC)c1OC [Piperlongumine],percent Bodipy-positive cells,,100%
O=C(Nc1ccccc1)c1ccccc1O [Salicylanilide],percent Bodipy-positive cells,[1],13.8 ± 6%
same,percent Bodipy-positive cells,library stock concentration: 9.4 mM,5.11 ± 0.45%
same,percent Bodipy-positive cells,[4],53.6 ± 16%
CCCOc1ccc(/C=C2/SC(=O)NC2=O)cc1 [PIM1/2 Kinase Inhibitor VI],percent Bodipy-positive cells,[1],9.3 ± 1%
C#C[C@]1(O)CC[C@H]2[C@@H]3CCc4cc(OC5CCCC5)ccc4[C@H]3CC[C@@]21C,percent Bodipy-positive cells,[4],77.243 ± 0.064%
CN(C)CCC=C1c2ccccc2CCc2ccccc21 [Annoyltin],percent Bodipy-positive cells,[4],93.67 ± 0.81%
CN(C)CCC=C1c2ccccc2CCc2ccccc21 [Amitryptiline hydrochloride],percent Bodipy-positive cells,,74 ± 5.1%
CN(C)CCC=C1c2ccccc2CCc2ccccc21 [Amitriptyline HCl],percent Bodipy-positive cells,[1],38.1 ± 2%
CN(C)CCC=C1c2ccccc2CCc2ccccc21 [Amitriptyline hydrochloride],percent Bodipy-positive cells,[6],28.4 ± 3.6%
same,percent Bodipy-positive cells,[4],60.5 ± 7%
Cc1ccnc2c1NC(=O)c1cccnc1N2C1CC1 [Nevirapine],percent Bodipy-positive cells,[1],17.3 ± 1.3%
same,percent Bodipy-positive cells,[4],12.3 ± 1.4%
Cc1ccnc2c1NC(=O)c1cccnc1N2C1CC1 [Viramune],percent Bodipy-positive cells,[4],5.5 ± 2.1%
Cc1ccnc2c1NC(=O)c1cccnc1N2C1CC1,percent Bodipy-positive cells,[4],45.52 ± 0.35%
CCCCC[C@H](O)/C=C/C=C\C/C=C\C/C=C\CCCC(=O)O,percent Bodipy-positive cells,library stock concentration: 100 uM,6.88 ± 5.6%
CCCCCC=CC=CC(O)CCCCCCCC(=O)OCC(COC(=O)CCCCCCCC=CC=CC(O)CCCCC)OC(=O)CCCCCCCC=CC=CC(O)CCCCC (configuration not stated) [Hydroxy Linoleins],percent Bodipy-positive cells,[3],13.3 ± 0.52%
CCNC(=O)C1=C(c2ccc(OC)cc2)C(=C2C=C(Cl)C(O)=CC2=O)NN1,percent Bodipy-positive cells,[4],92.7 ± 2.4%
CC(C)[C@H](CO)Nc1nc(Nc2cccc(Cl)c2)c2ncn(C(C)C)c2n1 [Purvalanol A],percent Bodipy-positive cells,[1],12.1 ± 1.4%
same,percent Bodipy-positive cells,[4],25.9 ± 3.6%
Cc1[nH]c(=O)c(C#N)cc1-c1ccncc1 [Milrinone],percent Bodipy-positive cells,,5.17 ± 1.1%
same,percent Bodipy-positive cells,[1],5.22 ± 1%
same,percent Bodipy-positive cells,library stock concentration: 9.5 mM,9.53 ± 0.57%
same,percent Bodipy-positive cells,[4],11.2% and 20.7%
same,percent Bodipy-positive cells,library stock concentration: 23.7 mM,12.5 ± 0.77%
Cn1c(=O)c2[nH]cnc2n(C)c1=O [Oxtriphylline],percent Bodipy-positive cells,[5],10.9 ± 7.3%
Cn1c(=O)c2[nH]cnc2n(C)c1=O [Aminophylline],percent Bodipy-positive cells,,7.5 ± 3%
same,percent Bodipy-positive cells,[1],8.23 ± 3%
same,percent Bodipy-positive cells,[4],8.42 ± 0.21%
Cn1c(=O)c2[nH]cnc2n(C)c1=O [Aminophylline ethylenediamine],percent Bodipy-positive cells,[4],51 ± 15%
CS(=O)(=O)c1ccc(C2=C(c3ccccc3)C(=O)OC2)cc1 [Rofecoxib],percent Bodipy-positive cells,[1],8.64 ± 3.8%
same,percent Bodipy-positive cells,[6],9.15% and 14.7%
CS(=O)(=O)c1ccc(C2=C(c3ccccc3)C(=O)OC2)cc1,percent Bodipy-positive cells,[4],9.1 ± 2.6%

# Two entries drawn at random from those above, as already listed:
compound,measurement,setting,value
CN(C)CCC=C1c2ccccc2CCc2ccccc21 [Amitriptyline hydrochloride],percent Bodipy-positive cells,[6],28.4 ± 3.6%
CN(C)CCC=C1c2ccccc2CCc2ccccc21 [Amitriptyline HCl],percent Bodipy-positive cells,[1],38.1 ± 2%
